No constants are given. Whether binding was seen depends on the method and setting. Binding calls can cover weak binding; strength is not graded here.

Assay [1] has as its target murine Claudin 18.2 (murine). The assay can be described thus: flow cytometry on 293T-Mu18.2 cells.
The target of assay [2] is monkey Claudin 18.2 (monkey). The assay can be described thus: flow cytometry on 293T-RM18.2 cells. On the technique in general: A flow cytometer gives signals particle by particle.

B1: anti-Claudin 18.2 antibody 8D2 (antibody, V domains shown)
VH: QVQLKQSGPELVKPGASVKMSCKASGYTFTSYVMHWVKQKPGQGLEWIGYINPYNDGTKYNEKFKGKATLTSDKSSSTAYMELSSLTSEDSAVYYCARRGYYGPYFDYWGQGTTLTVSS
VL: DIVMTQSPSSLTVTAGEKVTMSCKSSQSLLNGGNQKNYLTWYQQKPGQPPKLLIYWASTRESGVPDRFTGSGSGTDFTLTISSVQAEDLAVYYCQNDYYYPYTFGGGTKLEIK
For the molecule B1, the binding result in assay [1] and in assay [2] was “binds” throughout.
